Experimental data taken from patent publication US20260258333A1, “MULTI-ORGAN "BODY ON A CHIP" APPARATUS UTILIZING A COMMON MEDIA” (Wake Forest University Health Sciences, priority 2016, published 2026).

System: liver organoids (cytochrome p450 isoforms)
Conditions: primarily by CYP2C19 and CYP3A4

CN1C(=O)CN=C(c2ccccc2)c2cc(Cl)ccc21 [diazepam]
metabolites formed by liver organoids: metabolism of diazepam into temazepam, nordiazepam, and oxazepan
